In patent publication US6465396B1, “Method to promote growth of a plant” (Nara Institute of Science and Technology, priority 1999, dated 2002):

System: rice plant bodies
Details: 5 ml of 1.4 mM sodium formate (pH7), 25° C., dark, GC-MS, FIG. 11

Row | Compound | [13C] CO2 compared to total carbon dioxide [%]
1 | O=C[O-].[Na+] [[^12C] formic acid, [^12C] sodium formate] | 9
2 | O=[13CH][O-].[Na+] [[^13C] formic acid, [^13C] sodium formate] | 1
